Structures were worked out from names or drawings and are uncertain.

Amino acid sequences for entries named in this document (tags omitted).
UniProt Q9NQS5, whole entry: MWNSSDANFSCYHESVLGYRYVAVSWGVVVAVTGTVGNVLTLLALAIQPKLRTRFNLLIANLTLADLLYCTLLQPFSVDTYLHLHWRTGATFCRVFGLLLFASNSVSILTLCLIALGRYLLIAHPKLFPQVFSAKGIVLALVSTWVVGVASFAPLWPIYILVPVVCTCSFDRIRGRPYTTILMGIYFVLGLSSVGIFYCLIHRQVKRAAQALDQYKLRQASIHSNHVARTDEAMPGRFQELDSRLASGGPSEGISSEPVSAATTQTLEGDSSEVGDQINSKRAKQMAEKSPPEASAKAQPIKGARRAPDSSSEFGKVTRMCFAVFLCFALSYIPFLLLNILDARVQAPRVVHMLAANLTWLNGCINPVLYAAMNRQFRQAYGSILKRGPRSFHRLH

In this assay the target is human GPR84 receptor (Homo sapiens, UniProt Q9NQS5). Kind of assay: Gαi biosensor BRET assay in HEK293 cells (antagonism of ZQ-16). The note with it: for IC50: read-out: BRET IC50, HEK293 cells, antagonism of 200 nmol/L ZQ-16.

As to `Cc1ccc(-c2ccc(-c3nnn(CC4CCCCO4)c3C)cc2)cn1` (stereo not drawn), the IC50 is above 3000 nM. Besides, where the note is “single concentration 25 μM (designated I)”, the “% Inhibition” value is given as “*** (percent inhibition of >50-≤75)”. Turning to `CC(C)c1cc(N2CC(C)(C)C2)ccc1-c1cn(CC2CCCCO2)nn1` (stereo not drawn), the IC50 lay within 300 to 1000 nM.

The values above are taken from US12617777B2, “GPR84 antagonists and uses thereof” (Liminal BioSciences Limited, priority 2021, dated 2026).
